Among the data in PubChem BioAssay AID2685 (National Center for Advancing Translational Sciences (NCATS), 2010) are AC50 and cell number change values, retold here.

The assay can be described thus: qHTS Assay for Lipid Storage Modulators in Drosophila S3 Cells.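 For cell number change: cells counted by Cell Tracker Red CMTPX staining in the red channel.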 The following applies: BODIPY lipid droplet fluorescence, 18-24 h; for cell number change: measured here: cell count max response, cells fed with added oleic acid. A digest of the protocol: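 Laser-scanning cytometry quantifies lipid droplet accumulation (500–530 nm total intensity; droplet/cell object ratio) in oleic acid-fed (400 uM added) Drosophila S3 cells treated with a concentration series. 20 uM Triacsin C defined 100% inhibition.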
(In general: qHTS replaces the single test concentration by a dilution series.)

Where [1] appears, read: measured here: cell number channel AC50, cells fed with added oleic acid.
The mark [2] stands for this setting: measured here: lipid fluorescence (Fed channel) AC50, cells fed with added oleic acid.

Some of the results follow. Further columns of the screen follow, without active or inactive calls. Most of these compounds were active or inconclusive in the main read-out, so they are no random draw. Words in brackets tell the shape of the fitted curve; partial curves, single points and poor fits give uncertain potencies.

In general, AC50 refers to the midpoint of the concentration-response curve, whichever way the signal moves. Low values mean greater potency, high ones weaker potency. For the compound `CC(C)(C)N(Cc1ccccc1)C(=O)COC(=O)Cn1cnc2ccccc2c1=O`, the AC50 is, setting by setting: under setting [1], 0.517 µM [rising, single point]; under setting [2], 18.4 µM [rising, single point].
Consider `COCCCNC(=O)C1c2ccccc2Oc2ccccc21`, for which the cell number change was 17.3%.
Consider `CC1CCC(NC(=O)CN(C)S(=O)(=O)c2ccc3c(c2)c(=O)n(C)c(=O)n3C)CC1` (stereo not drawn), for which the cell number change was -23%. Also, the AC50 under setting [2] is 5.8 µM [falling, full curve].
As for `Cc1ccc2c(c1)nnn2C1CCN(C(=O)NCc2ccccc2)CC1`, the cell number change was -34.5%.
For the compound `CCCCCCc1cc2cc(S(=O)(=O)c3ccc(F)c(Cl)c3)c(=O)oc2cc1O`, the cell number change was -42%. The concentration at half-maximal activity (AC50) under setting [1] is 7.31 µM [falling, partial curve, poor fit]. In addition, under setting [2], the AC50 is 2.06 µM [falling, partial curve].
On to `CC(C)(C)c1[nH]c2ccccc2c1/C=N/O`, for which the cell number change is -75.8%. Also, the AC50 under setting [1] was 29.1 µM [falling, single point].
Regarding `NC(=O)C1CCCN(C(=O)c2ccc(S(=O)(=O)N3CCCCCC3)cc2)C1` (stereo not drawn), the cell number change is -9.2%. For the same compound, the AC50 under setting [2] is 0.082 µM [falling, full curve, poor fit].
As for `COCCSc1ccccc1C(=O)Nc1nncs1`, the concentration at half-maximal activity (AC50) runs as follows: under setting [1], 6.51 µM [rising, single point]; under setting [2], 6.51 µM [rising, single point].
With `Cc1cc(C)n(S(=O)(=O)c2ccc(C)c(C)c2C)n1`, the AC50 under setting [1] is 0.184 µM [rising, full curve, poor fit].
As to `COc1ccc(-c2cc(C(=O)N3CCCc4ccccc43)no2)cc1OC`, the cell number change is -7.29%. Moreover, under setting [2], the concentration at half-maximal activity (AC50) was 9.2 µM [falling, partial curve].
Take `Cc1ccc(S(=O)(=O)c2nnn3c2nc(N2CCOCC2)c2ccccc23)cc1C`: the cell number change is 10.8%.
Consider `CCN(CC(=O)Nc1cccc(C(C)=O)c1)S(=O)(=O)c1ccc(OC)cc1`, for which the cell number change was determined as 9.31%. In addition, the AC50 under setting [2] is 3.26 µM [rising, single point].
For the compound `Cc1[nH]c(=O)[nH]c(=O)c1Sc1ccccc1[N+](=O)[O-]`, the cell number change was -7.14%.
As for `Cc1ccccc1NC(=O)CN1CCN(Cc2ccccc2)CC1`, the cell number change was -14.6%. Under setting [1], the AC50 is 0.116 µM [falling, full curve, poor fit].
As for `COc1ccc(/C=C/C(=O)Nc2ccccc2)cc1OC`, the cell number change came to 44.8%. The AC50 under setting [1] is 4.61 µM [rising, full curve]. Also, the half-maximal activity concentration (AC50) under setting [2] was 1.84 µM [rising, full curve].
For `CSCCC1Nc2ccc(S(=O)(=O)N3CCOCC3)cc2NC1=O` (stereo not drawn), the cell number change turned out to be 21.8%.
For `N#Cc1c(/N=C/c2cccnc2)sc2c1CCCC2`, the cell number change came to 20.9%. Under setting [2], the AC50 is 13 µM [rising, partial curve, poor fit].
In the case of `CN1CCC(=NNC(=O)C(=O)NC2CCCCC2)CC1`, the cell number change came out at 31.8%. The AC50 under setting [1] was 0.92 µM [rising, full curve, poor fit]. Besides, the AC50 under setting [2] is 29.1 µM [falling, single point].
In the case of `Cc1cc(C)c(S(=O)(=O)N(C)CC(N)=O)c(C)c1`, the AC50 is 6.51 µM [falling, single point] under setting [1] and 6.51 µM [falling, single point] under setting [2].
In the case of `CCOC(=O)CSc1nc2ccc(N3CCOCC3)cc2c(=O)n1Cc1ccccc1`, the cell number change was found to be 35.7%. For the same compound, under setting [1], the AC50 is 0.366 µM [rising, full curve]. Moreover, under setting [2], the AC50 was 0.517 µM [rising, partial curve].
With `Cc1onc(-c2ccccc2)c1C(=O)NC(=S)Nc1sc2c(c1C#N)CCC(C)C2` (stereo not drawn), the cell number change is -54.8%. Further, the AC50 under setting [1] was 5.8 µM [falling, partial curve, poor fit]. Also, the AC50 under setting [2] is 0.651 µM [falling, full curve, poor fit].
`Cc1ccc(NS(=O)(=O)c2cc(C(=O)NCc3ccncc3)ccc2C)cc1`: the cell number change came out at 4.91%.
Same read-out and setting: next, `c1ccc(CCCN2CCN(c3ccccc3)CC2)cc1`: 23.3%.
For `COc1cc(C(=O)NCC2CCCO2)ccc1OCc1ccc(Cl)cc1` (stereo not drawn), the cell number change was -4.71%. Under setting [2], the AC50 is 3.66 µM [falling, single point].
Turning to `Cc1ccc2oc(-c3cccc(NC(=O)C4CCCO4)c3)nc2c1` (stereo not drawn), the cell number change came to 113%. The AC50 under setting [1] is 2.06 µM [rising, full curve].
`CC(=O)c1ccc(NS(=O)(=O)Cc2ccc(Cl)cc2)cc1`: the cell number change was -6.97%. In addition, the AC50 under setting [2] was 5.8 µM [falling, single point].
As for `CC(=O)c1cccc(NC(=O)CN(C)S(=O)(=O)c2ccccc2)c1`, the cell number change is -18.8%. The AC50 under setting [2] is 18.4 µM [falling, single point].
As to `CCOc1ccc(S(=O)(=O)n2ccc(C)n2)cc1`, the cell number change worked out at 16.1%. Further, the AC50 under setting [2] is 29.1 µM [rising, single point].
Take `CC(=O)Nc1scc(C)c1-c1nc2ccccc2s1`: the cell number change is -33.3%. Further, the half-maximal activity concentration (AC50) under setting [1] was 32.6 µM [falling, single point]. Besides, the AC50 under setting [2] is 29.1 µM [falling, single point].
Consider `COc1ccc(NC(=O)COC(=O)CN2C(=O)C3CCCCC3C2=O)cc1OC` (stereo not drawn), for which the cell number change was -12.2%.
Consider `Oc1ccc(-c2csc(Nc3ccccn3)n2)cc1`, for which the cell number change was -26.7%. Moreover, the AC50 under setting [2] was 3.26 µM [falling, single point].
For the compound `CCCc1nc2c(=O)n(C)c(=O)[nH]c2n1CCC`, the cell number change was -23.4%. Also, under setting [1], the AC50 was 1.46 µM [falling, full curve, poor fit]. Under setting [2], the AC50 was 1.64 µM [falling, partial curve].
Turning to `COC(=O)[C@H](CCSC)NC(=O)Nc1ccc(OC)cc1`, the cell number change was -1.68%. For the same compound, under setting [1], the AC50 is 0.651 µM [falling, single point]. Further, under setting [2], the AC50 is 0.58 µM [falling, single point].
For the compound `CN1/C(=C\C(=S)Nc2ccccc2)C(C)(C)c2ccccc21`, the cell number change was -4.1%. Besides, under setting [2], the AC50 was 5.8 µM [rising, single point].
`Clc1ccc(CNCC2CCCO2)cc1` (stereo not drawn): the half-maximal activity concentration (AC50) under setting [2] is 9.2 µM [rising, single point].
With `COc1ccc(C(=O)N/C(=C\c2ccc(OC)c(OC)c2)C(=O)N2CCCCC2)cc1`, the cell number change is 3.48%. Moreover, under setting [2], the AC50 was 5.8 µM [rising, full curve, poor fit].
For the compound `CSc1nc(C2CC2)cc(-c2cccs2)c1C#N`, the cell number change is -2.79%. Besides, the AC50 under setting [1] was 0.00461 µM [rising, full curve, poor fit].
On to `CCOC(=O)C1=C(c2ccccc2)Nc2ncnn2C1c1ccc(O)cc1` (stereo not drawn), for which the cell number change was determined as 20.6%. Further, under setting [1], the AC50 was 0.651 µM [rising, full curve, poor fit]. For the same compound, the AC50 under setting [2] is 0.82 µM [rising, full curve, poor fit].
For the compound `CCOC(=O)C(=Cc1cn(C)c2ccc(S(=O)(=O)N(C)C)cc12)C(=O)OCC`, the cell number change is -18.6%. Also, the AC50 under setting [1] is 3.66 µM [falling, single point]. Further, the AC50 under setting [2] is 29.1 µM [falling, single point].
